Some compounds share one wording; it may come from a single statement.
Assay: Staining of contact lenses soaked in dye solutions
Settings: all tested lenses; dye solution in Aquify MPS or PBS

CN(C)c1ccc(C(=C2C=CC(=[N+](C)C)C=C2)c2ccccc2)cc1 [Malachite Green]
staining of lenses: do not stain any tested lenses

Source: patent US8062607B2, “Lens care methods and kits” (Novartis AG, priority 2006, dated 2011)
